From article PMC10163288
Some of the results follow.

B1: il2ra_site1_3nfp_sap_23_mot_HHH_b1_07396_000000043_0001_40_57_H_._HHH_b1_00305_0001_0000700020_0000001_0_0001_af2pred_0001_af2pred_1_swapped (protein)
chain: DIVEELVELALEENSPRLLERIFRDLERTLGDPEEAERRLIEIIAKLLGTPPEEAEKIVEEVIGP
B2: il2ra_site1_1z92_sap_9_mot_ffc8530cc3987bf120756695d8da17cc_0001_af2_000000243_0001_1_16_H_._HHH_b2_00297_af2_0001_0000200036_0000001_0_0001_af2pred_dldesign_0_ … (protein)
chain: SSSSSSPADELVDRLVEELKLPESARKDLRKYAEMLEAKGASPEQAERNLRKAADFMRKLSSSSS
B3: il2ra_site2_3nfp_normal_mot_HHH_b2_06150_000000217_0001_39_53_H_._HHH_b1_08710_0001_0000300029_0000001_0 (protein)
chain: SSSSSSDAEEEVEELLEEAKRIDDPEERREVLAKATKIAWENRDSELFFLIAEVLFKLVSSSSSS
B4: il2ra_site1_3nfp_sap_12_mot_c4dd8cf0dac887b0ed015202f8c0b8fc_0001_af2_000000043_0001_17_34_H_._HHH_b2_07872_af2_0001_0000100002_0000001_0_0001 (protein)
chain: GLEEVKKLVEELGDPQLRHFVKLLEHALRAIGDPIAREMAKRLFELLRRNDEEAQEFVKEVVEKL
B5: il2ra_site1_2b5i_normal_mot_HHH_b2_03466_af2_000000069_0001_42_56_H_._HHH_b2_05266_af2_0001_0000200015_0000001_0 (protein)
chain: SSSSSDEEEAKKAYELLEEANQIEDPEEARRLLEEAKKLAEEVNNRALLKFIERALEQLGSSSSS
B6: il2ra_site1_1z92_sap_25_mot_HHH_b2_05274_af2_000000237_0001_23_40_H_._HHH_b2_00297_0001_0000400044_0000001_0_0001_af2pred_0001_af2pred_swapped (protein)
chain: DLKRDLERSEEFFGDPRQALKAALRAIAAREGDPEEAVKALKEVLEELNDPELERLLKELAEKRR
B7: il2ra_site1_1z92_sap_13_mot_HHH_b1_07881_000000176_0001_43_56_H_._HHH_b2_03446_0001_0000700049_0000001_0_0001_af2pred_0001_af2pred_1 (protein)
chain: SSSSDEQLEWLEKQIRRALERGSERLAQRLIEMVRQWAEDFDDEEAREVAEELQRILEELSSSSS
B8: il2ra_site2_2erj_normal_mot_d8db7d3d6fba55db16f38f4fb78be25a_0001_af2_000000045_0001_18_32_H_._HHH_b1_06675_af2_0001_0000500008_0000001_0 (protein)
chain: SSSSELTMFAFKLVSRLAAELGLDAEQALELFEFALRLLERGVSEEEIKELVEELAEQLRGSSSS
B9: il2ra_site1_2b5i_normal_mot_HHH_b2_04910_000000118_0001_1_19_H_._HHH_b1_03255_af2_0001_0000100004_0000001_0_af2pred_dldesign_0_af2pred (protein)
chain: SSSSSGEEFRKALEEIERLFKEGKLEEATKLAEEALARARAARRALHARILELILKQILESSSSS
B10: il2ra_site1_2b5i_normal_mot_0e5a94e4a5addaac739760efb25f0f5d_0001_000000208_0001_18_32_H_._HHH_b2_07956_af2_0001_0000400021_0000001_0_af2pred_0001_af2pred (protein)
chain: SSSSTDEELELLRLITRALWLLRREGDEELVEELHELAREALHKDDPELLREAVEIAKEVNSSSS
B11: il2ra_site2_3nfp_sap_28_mot_HHH_b2_05281_000000198_0001_39_56_H_._71fa3b3ce36e4cc21c7110f2bf27d1ce_0001_af2_0001_0000100005_0000001_1_0001 (protein)
chain: SSSSSSEVEELFREVEELLERGDRYQAAQLILEMSRLAAERNDPEAARLVLELYKRALGSSSSSS
B12: il2ra_site2_2erj_sap_15_mot_HHH_b1_07182_000000298_0001_1_15_H_._HHH_b1_05853_af2_0001_0000900017_0000001_0_0001 (protein)
chain: SSSSSEETLKLLLEMAEEAYKEGDRARLELILRFLELSLRDTGDPRVEEAFREVEELLERLSSSS
B13: il2ra_site1_1z92_normal_mot_0a54d8a7266968de9ae0346ffe2baff0_0001_af2_000000020_0001_37_50_H_._84ee3a8f0a65711069ec53bc75935faa_0001_0001_0000100010_0000001_1 (protein)
chain: PLLEEDIQRALEEGNVEEVAEEIFRLAEEDAGDPKLASQFLKTLLKKAGVPPEEVERIVEKLERK
B14: il2ra_site2_3nfp_sap_21_mot_HHH_b2_03978_000000149_0001_1_20_H_._8dc8e935950a1f8e5bdf62a2e89caa87_0001_0001_0000500013_0000001_0_0001 (protein)
chain: SSSSDVEERLQELLEELERLIEEGDEERAKEILRELAHIAYRNNNPEVYFRVAELAFKVFGSSSS
B15: il2ra_site2_3nfp_normal_mot_HHH_b2_01155_000000159_0001_38_52_H_._HHH_b1_01900_af2_0001_0000300029_0000001_0 (protein)
chain: SSSSSEDEERVKELLEKAERYYEEGNPEEVEELLAEALEIAFERRDSELFMLVAEVAFRLRSSSS
B16: il2ra_site2_3nfp_normal_mot_HHH_b1_00660_af2_000000090_0001_40_57_H_._HHH_b1_01870_0001_0000500057_0000001_0_af2pred_0001_af2pred (protein)
chain: SSSSSSSEEEVERLLEEAEHIDDPEERRKVLLKASRIALENNNFELFAEVILVAERLRSSSSSSS
B17: il2ra_site2_2erj_sap_18_mot_801aa9fa2b252c557f093b13e8332d46_0001_000000136_0001_17_32_H_._HHH_b1_06640_0001_0000400009_0000001_1_0001 (protein)
chain: SSSSSESEERVKELLEEAERLYEEGNLHEVYKLAVEALRVAAENGDEELLRLIAEVIERLSSSSS
B18: il2ra_site1_1z92_normal_mot_HHH_b2_05238_af2_000000252_0001_38_55_H_._HHH_b1_07174_af2_0001_0000900012_0000001_0 (protein)
chain: SSSSKEEALEIMFRAVERALRAGDPRAAKRLLEFFRKQVEIEGDPEAKELLEELERLLEELSSSS
B19: il2ra_site1_2b5i_sap_17_mot_HHH_b1_07343_000000001_0001_1_17_H_._2604b9d93cf3bfb2f9660f4e92ac741a_0001_0001_0000600056_0000001_0_0001 (protein)
chain: SSSSSTDELEERANELFFEASRVPDPEEREKLLREALELAREGNDPKLEEEIRQMLERLGSSSSS

The binders below were run against il2ra, P01589 (assay: yeast display titration).

Apparent Kd, inactive:
B1 no binding seen
B2 no binding seen
B3 no binding seen
B4 no binding seen
B5 no binding seen
B6 no binding seen
B7 > 5.82 nM
B8 no binding seen
B9 no binding seen
B10 no binding seen
B11 no binding seen
B12 no binding seen
B13 no binding seen
B14 no binding seen
B15 no binding seen
B16 no binding seen
B17 no binding seen
B18 no binding seen
B19 no binding seen
